Results from patent US8507214B2, “Elisa kit for detecting lincomycin” (Beijing Kwinbon Biotechnology Co., Ltd., priority 2008, dated 2013).
At least one structure is not confirmed: it was looked up by name or label, or the drawing left a doubt.

What was measured:
[1] = tested on: lincomycin monoclonal antibody prepared from hapten LIN-S1; experiment: Cross reaction (specificity) of the monoclonal antibody prepared from hapten LIN-S1; assay type: binding, mouse; settings: antibody from hapten scheme LIN-S1; lincomycin = 100%
Description: (§1) When the mouse serum titer is determined as high, the spleen cells are collected and fused with SP2/0 myeloma cells at an amount ratio of 7:1. The cell supernatant is detected by indirect competitive ELISA for screening the positive wells. The cells in the positive wells are cloned via limiting dilution method until a hybridoma cell secreting monoclonal antibody is obtained. The 50% inhibitory concentration and specificity of the monoclonal antibodies prepared from the two hapten schemes above are detected.

[2] = tested on: monoclonal antibody prepared from hapten LIN-S2; experiment: Cross reaction (specificity) of the monoclonal antibody prepared from hapten LIN-S2; assay type: binding, mouse; settings: antibody from hapten scheme LIN-S2; lincomycin = 100%
Description: as §1

SMILES | Cross reaction [1] [%] | Cross reaction [2] [%]
CCC[C@@H]1C[C@@H](C(=O)N[C@@H]([C@H]2O[C@H](SC)[C@H](O)[C@@H](O)[C@H]2O)[C@H](C)Cl)N(C)C1 [Clindamycin] | <1 | 13.1
NC[C@H]1O[C@H](O[C@H]2[C@H](O)[C@@H](O[C@H]3O[C@H](CO)[C@@H](O)[C@H](N)[C@H]3O)[C@H](N)C[C@@H]2N)[C@H](O)[C@@H](O)[C@@H]1O [Kanamycin] | <1 | 14.7
